The record followed here is patent publication US20120141373A1 (University of California, published 2012).

These are yes or no findings as the source states them, for the method shown. Some binding calls cover weakened binding; strength is not graded here.

The target of the experiment is T1, human MT-SP1 protease domain (human, UniProt Q9Y5Y6 615-855).
T1 construct: domain: protease domain; also called hMT-SP1; matriptase
T1 sequence (looked up): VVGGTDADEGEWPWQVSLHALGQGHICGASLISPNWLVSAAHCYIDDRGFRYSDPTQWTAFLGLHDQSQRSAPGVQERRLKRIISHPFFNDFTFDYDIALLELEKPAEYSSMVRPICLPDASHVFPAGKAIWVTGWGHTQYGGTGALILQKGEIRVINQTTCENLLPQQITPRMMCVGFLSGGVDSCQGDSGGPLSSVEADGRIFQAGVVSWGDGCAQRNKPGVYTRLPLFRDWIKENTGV
The experiment is described as follows: structure of the complex (figure legend).

B1: E2 Fab (Fab, V domains shown)
VH: QVQLVQSGGGLVKPGGSLRLSCAASGFTFSSYAMSWVRQAPGKGLEWVSAISGSGGSTYYADSVKGRFTISRDNSKNTLYLQMSSLRAEDTAVYYCARPYLTYPQRRGPQNVSPFDNWGQGTMVTVSS
VL: DIQMTQSPSSLSASVGDRVTITCRASQGISSYLAWYQQKPGKAPKLLIYAASSLQSGVPSRFSGSGSGTDFTLTISSLQPEDFAVYYCQQHGNLPYTFGDGTKVEIKR
notes: also called anti-MT-SP1 Fab antibody E2
As for B1, the binding entry is “binds”.
